Experimental data published in patent publication US20190350938A1 (BROAD INSTITUTE, published 2019).
Positions count from the first letter of the chain named. No constants are given. Whether binding was seen depends on the method and setting. For part of these data: In cells and extracts the contact can be indirect. Some results given as binding are weak or reduced against the parent protein; the word gives no strength. Tags and fused reporters may be left off the sequences shown. Values belong to the molecule of their own block, whether it stands above or below them.

What was measured:
SLC16A11^REF-HA (human) [1] = molecular target: T1, SLC16A11^REF-HA (human) (UniProt Q8NCK7); test: reciprocal co-immunoprecipitation in HEK293T, Western blot (FIG. 5D bottom, A and B)
T1 sequence: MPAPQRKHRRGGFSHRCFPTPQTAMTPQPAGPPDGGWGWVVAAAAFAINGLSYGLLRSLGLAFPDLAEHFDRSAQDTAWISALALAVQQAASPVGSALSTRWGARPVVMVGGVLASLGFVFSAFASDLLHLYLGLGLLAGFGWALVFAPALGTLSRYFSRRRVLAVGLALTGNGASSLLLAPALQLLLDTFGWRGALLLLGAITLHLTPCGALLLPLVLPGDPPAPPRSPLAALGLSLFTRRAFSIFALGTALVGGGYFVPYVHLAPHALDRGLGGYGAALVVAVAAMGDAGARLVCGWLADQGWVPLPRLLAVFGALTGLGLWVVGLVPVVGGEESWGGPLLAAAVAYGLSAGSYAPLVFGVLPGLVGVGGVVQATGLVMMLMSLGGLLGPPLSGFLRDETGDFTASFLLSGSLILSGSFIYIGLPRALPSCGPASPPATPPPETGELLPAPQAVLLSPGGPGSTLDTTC

SLC16A11^REF-HA (human) [2] = molecular target: T1, SLC16A11^REF-HA (human); test: co-immunoprecipitation of BSG-V5 and SLC16A11-HA (FIG. 5D bottom)
SLC16A11^REF-V5 (human) [3] = molecular target: T2, SLC16A11^REF-V5 (human) (UniProt Q8NCK7); test: co-immunoprecipitation, Western blot (FIG. 5B bottom)
T2 sequence: T1 sequence

SLC16A11^REF-V5 (human) [4] = molecular target: T2, SLC16A11^REF-V5 (human); test: co-immunoprecipitation of HA- and V5-tagged SLC16A11
SLC16A11^REF-HA (human) [5] = molecular target: T1, SLC16A11^REF-HA (human); test: co-immunoprecipitation, Western blot (FIG. 5E top)
[6] = molecular target: T3, P2D SLC16A11^T2D-V5 (human); test: anti-V5 IP, iTRAQ quantitative MS, T2D risk vs WT (FIG. 5C top)
T3 sequence: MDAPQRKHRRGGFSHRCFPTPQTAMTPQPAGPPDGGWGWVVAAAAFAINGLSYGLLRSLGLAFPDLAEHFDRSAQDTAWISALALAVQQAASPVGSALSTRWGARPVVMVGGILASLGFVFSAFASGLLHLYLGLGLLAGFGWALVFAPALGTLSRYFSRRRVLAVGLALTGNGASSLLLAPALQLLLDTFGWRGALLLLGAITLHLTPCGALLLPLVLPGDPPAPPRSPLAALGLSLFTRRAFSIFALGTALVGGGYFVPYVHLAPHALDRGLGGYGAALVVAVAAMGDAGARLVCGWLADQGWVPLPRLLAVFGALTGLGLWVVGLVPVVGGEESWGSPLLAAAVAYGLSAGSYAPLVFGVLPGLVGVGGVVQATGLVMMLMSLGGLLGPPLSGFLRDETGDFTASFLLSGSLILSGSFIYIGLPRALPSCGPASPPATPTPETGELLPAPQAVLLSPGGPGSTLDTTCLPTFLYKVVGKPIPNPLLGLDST

SLC16A11^REF-HA (human) [7] = molecular target: T1, SLC16A11^REF-HA (human); test: co-immunoprecipitation in HEK293T, Western blot (FIG. 5D bottom, C)
P2D SLC16A11^REF-V5 = molecular target: T4, P2D SLC16A11^REF-V5 (human, UniProt Q8NCK7 1-447); test: IP of WT SLC16A11 vs empty vector control IP, quantitative MS
T4 construct: bait of the proteomics study; also called P2D WT SLC16A11; WT SLC16A11
T4 sequence: T1 sequence with P2D

SLC16A11^REF-HA (human) [8] = molecular target: T1, SLC16A11^REF-HA (human); test: co-immunoprecipitation of endogenous BSG with SLC16A11-HA (FIG. 5D bottom, FIG. 5E top)

- binding (SLC16A11^REF-HA (human) [1]): binds
- binding (SLC16A11^REF-HA (human) [2]): binds
Molecule: BSG-V5 (from UniProt P35613 22-269)

- binding (SLC16A11^REF-V5 (human) [3]): binds
- binding (SLC16A11^REF-V5 (human) [4]): binds
B1: SLC16A11^REF-HA (protein, not shown: small tags and cut ends)
chain: T1 sequence

- binding (SLC16A11^REF-HA (human) [5]): binds
- binding [6]: binds
- binding (SLC16A11^REF-HA (human) [7]): binds
- binding (P2D SLC16A11^REF-V5): binds
- binding (SLC16A11^REF-HA (human) [8]): binds
B2: Basigin (other, human, UniProt P35613-2 22-269, looked up)
chain: AAGTVFTTVEDLGSKILLTCSLNDSATEVTGHRWLKGGVVLKEDALPGQKTEFKVDSDDQWGEYSCVFLPEPMGTANIQLHGPPRVKAVKSSEHINEGETAMLVCKSESVPPVTDWAWYKITDSEDKALMNGSESRFFVSSSQGRSELHIENLNMEADPGQYRCNGTSSKGSDQAIITLRVRSHLAALWPFLGIVAEVLVLVTIIFIYEKRRKPEDVLDDDDAGSAPLKSSGQHQNDKGKNVRQRNSS
modifications: glycosylated (runs as multiple bands)
notes: Endogenous protein co-precipitated from HEK293T lysate; also called BSG; endogenous BSG
